Some results were stated once for a whole list of compounds, not compound by compound.
The compounds below were run against T1, cloned human CRTH2 receptor (Homo sapiens, UniProt Q9Y5Y4) (assay: radioligand membrane binding assay: inhibition of [3H] PGD2 binding, Scintillation Proximity Assay). Details: [3H] PGD2 binding to membranes of HEK-293 cells expressing human CRTH2; SPA.
T1 construct: purchased Biosignal; host or cells: HEK-293 cells stably expressing human CRTH2 and G alpha 16
T1 sequence (Q9Y5Y4 1-395): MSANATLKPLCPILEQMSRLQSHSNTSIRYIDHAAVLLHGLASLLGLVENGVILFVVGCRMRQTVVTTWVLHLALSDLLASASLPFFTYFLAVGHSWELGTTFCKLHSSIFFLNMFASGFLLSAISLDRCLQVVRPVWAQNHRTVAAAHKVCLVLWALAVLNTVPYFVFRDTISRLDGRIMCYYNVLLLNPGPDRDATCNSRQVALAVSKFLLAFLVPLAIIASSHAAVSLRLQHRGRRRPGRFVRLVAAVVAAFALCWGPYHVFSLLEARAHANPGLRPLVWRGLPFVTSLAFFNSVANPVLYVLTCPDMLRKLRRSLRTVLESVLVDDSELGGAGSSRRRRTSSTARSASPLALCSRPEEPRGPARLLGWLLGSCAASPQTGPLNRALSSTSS
Protocol: This radioligand membrane binding assay evaluates the ability of compounds to inhibit [^3H] Prostaglandin D2 (PGD2) binding to the cloned human CRTH2 receptor stably expressed in HEK-293 cells (expressing human CRTh2 receptor and α subunit or the heterotrimeric G protein 16 were prepared by Biosignal Company) using Scintillation Proximity Assay.
A binding buffer containing 50 mM Tris-HCl (pH 7.5), 5 mM MgCl2 and 1 mM EDTA is prepared immediately prior to performing the assay. A bead/membrane solution at twice the final assay concentration comprising membranes (membranes bought from Biosignal) from the HEK-293 cells cloned to express CRTH2 receptor bound to and [^3H] PGD2 at two times the final assay concentration are prepared and stored on ice before adding to wells. Cold PGD2 at twenty times the final assay concentration is prepared and stored on ice before adding to wells defining non-specific binding (NSB) coming plates #3653 are used for this assay.
10 mM stock concentrations of compounds in 100% DMSO are prepared and stored at room temperature. A 10 point concentration response curve is then constructed for each compound, starting at 10 μM (final assay concentration). The compounds are prepared at 40 times final assay concentrations with nine consequent-3-fold dilutions.
0.1 μl of each concentration of compound are added to the appropriate well of the 384 plate and 2 μl of cold PGD2 is added into the wells defining NSB. 20 μl of [3H] PGD2 and then 20 μl of 2× of bead/membrane solution are then added to each well.
The plates are allowed to incubate at room temperature for approximately 2 hours and then counted on Packard Topcount using SPA tritium protocol for 1 minute/well.
The percent inhibition of PGD2 binding (PGD2 used at the KD value or lower) to the HEK-293 cell membranes is determined, the assay is always run as duplicate for n=1 for a total of n=2 and shown below.

Ki, < 10 µM:
CCN(C(=O)C1CC(C)N(C(=O)c2ccc(OC)cc2)c2ccccc21)C(C)C (mixture of isomers) [Compound 81, N-Ethyl-N-isopropyl-1-(4-methoxybenzoyl)-2-methyl-1,2,3,4-tetrahydroquinoline-4-carboxamide]
CCN(C(=O)[C@H]1C[C@H](C)N(C(=O)c2ccc(OC)cc2)c2ccccc21)c1ccc(C(F)(F)F)cc1 (racemic) [Compound 1, (±)-trans-1-(4-Methoxy-benzoyl)-2-methyl-1,2,3,4-tetrahydro-quinoline-4-carboxylic acid ethyl-(4-trifluoromethyl-phenyl)-amide]
CCN(C(=O)[C@H]1C[C@H](C)N(C(=O)c2cncnc2)c2ccccc21)c1ccc(Cl)cc1 (racemic) [Compound 3, (±)-trans-2-Methyl-1-(pyrimidine-5-carbonyl)-1,2,3,4-tetrahydro-quinoline-4-carboxylic acid (4-chloro-phenyl)-ethyl-amide]
CCN(C(=O)[C@H]1C[C@H](C)N(C(=O)c2ccc(C(F)(F)F)cc2)c2ccccc21)c1ccc(Cl)cc1 (racemic) [Compound 6, (±)-trans-2-Methyl-1-(4-trifluoromethyl-benzoyl)-1,2,3,4-tetrahydro-quinoline-4-carboxylic acid (4-chloro-phenyl)-ethyl-amide]
CCN(Cc1ccccc1)C(=O)[C@H]1C[C@H](C)N(C(=O)c2ccc(OC)cc2)c2ccccc21 (racemic) [Compound 7, (±)-trans-1-(4-Methoxy-benzoyl)-2-methyl-1,2,3,4-tetrahydro-quinoline-4-carboxylic acid benzyl-ethyl-amide]
CCOC(=O)CCCOc1ccc(C(=O)N2c3ccccc3[C@@H](C(=O)N(CC)c3ccc(Cl)cc3)C[C@@H]2C)cc1 (racemic) [Compound 9, (±)-trans-4-(4-{4-[(4-Chloro-phenyl)-ethyl-carbamoyl]-2-methyl-3,4-dihydro-2H-quinoline-1-carbonyl}-phenoxy)-butyric acid ethyl ester]
CCN(C(=O)[C@H]1C[C@H](C)N(C(=O)c2ccc(OC)cc2)c2ccccc21)c1cccc(C)c1 (racemic) [Compound 12, (±)-trans-1-(4-Methoxy-benzoyl)-2-methyl-1,2,3,4-tetrahydro-quinoline-4-carboxylic acid ethyl-m-tolyl-amide]
CCN(C(=O)[C@H]1C[C@H](C)N(C(=O)c2ccc(OC(C)(C)C(=O)O)cc2)c2ccccc21)c1ccc(Cl)cc1 (racemic) [Compound 13, (±)-trans-4-(4-{4-[(4-Chloro-phenyl)-ethyl-carbamoyl]-2-methyl-3,4-dihydro-2H-quinoline-1-carbonyl}-phenoxy)-2,2-dimethyl-acetic acid]
CCN(C(=O)[C@H]1C[C@H](C)N(C(=O)c2ccc(OC)cc2)c2ccccc21)c1ccc([N+](=O)[O-])cc1 (racemic) [Compound 17, (±)-trans-1-(4-Methoxy-benzoyl)-2-methyl-1,2,3,4-tetrahydro-quinoline-4-carboxylic acid ethyl-(4-nitro-phenyl)-amide]
CCN(C(=O)[C@H]1C[C@H](C)N(C(=O)c2cc(C)no2)c2ccccc21)c1ccc(Cl)cc1 (racemic) [Compound 18, (±)-trans-2-Methyl-1-(3-methyl-isoxazole-5-carbonyl)-1,2,3,4-tetrahydro-quinoline-4-carboxylic acid (4-chloro-phenyl)-ethyl-amide]
CCN(C(=O)[C@H]1C[C@H](C)N(C(=O)c2ccc(OCCCC(=O)O)cc2)c2ccccc21)c1ccc(Cl)cc1 (racemic) [Compound 19, (±)-trans-4-(4-{4-[(4-chloro-phenyl)-ethyl-carbamoyl]-2-methyl-3,4-dihydro-2H-quinoline-1-carbonyl}-phenoxy)-butyric acid]
CCN(C(=O)[C@H]1C[C@H](C)N(C(=O)c2ccc(OC)cc2)c2ccccc21)c1ccc(-n2ccnc2)cc1 (racemic) [Compound 20, (±)-trans-1-(4-Methoxy-benzoyl)-2-methyl-1,2,3,4-tetrahydro-quinoline-4-carboxylic acid ethyl-(4-imidazol-1-yl-phenyl)-amide]
CCN(C(=O)[C@H]1C[C@H](C)N(C(=O)c2ccc(OC)cc2)c2ccccc21)c1ccc(Cl)c(C)c1 (racemic) [Compound 22, (±)-trans-1-(4-Methoxy-benzoyl)-2-methyl-1,2,3,4-tetrahydro-quinoline-4-carboxylic acid (4-chloro-3-methyl-phenyl)-ethyl-amide]
CCN(C(=O)[C@H]1C[C@H](C)N(C(=O)c2cccc(OC)c2)c2ccccc21)c1ccc(Cl)cc1 (racemic) [Compound 24, (±)-trans-1-(3-Methoxy-benzoyl)-2-methyl-1,2,3,4-tetrahydro-quinoline-4-carboxylic acid (4-chloro-phenyl)-ethyl-amide]
CCN(C(=O)[C@H]1C[C@H](C)N(C(=O)c2ccc(OC)cc2)c2ccccc21)c1ccc(Cl)c(Cl)c1 (racemic) [Compound 25, (±)-trans-1-(4-Methoxy-benzoyl)-2-methyl-1,2,3,4-tetrahydro-quinoline-4-carboxylic acid (3,4-dichloro-phenyl)-ethyl-amide]
CCN(CC)C(=O)[C@H]1C[C@H](C)N(C(=O)c2ccc(OC)cc2)c2ccccc21 (racemic) [Compound 26, (±)-trans-1-(4-Methoxy-benzoyl)-2-methyl-1,2,3,4-tetrahydro-quinoline-4-carboxylic acid diethylamide]
CCN(C(=O)[C@H]1C[C@H](C)N(C(=O)c2ccccc2OC)c2ccccc21)c1ccc(Cl)cc1 (racemic) [Compound 27, (±)-trans-1-(2-Methoxy-benzoyl)-2-methyl-1,2,3,4-tetrahydro-quinoline-4-carboxylic acid (4-chloro-phenyl)-ethyl-amide]
CCN(C(=O)[C@H]1C[C@H](C)N(C(=O)c2ccc(OC)nc2)c2ccccc21)c1ccc(Cl)cc1 (racemic) [Compound 30, (±)-trans-1-(6-Methoxy-pyridine-3-carbonyl)-2-methyl-1,2,3,4-tetrahydro-quinoline-4-carboxylic acid (4-chloro-phenyl)-ethyl-amide]
CCN(C(=O)[C@H]1C[C@H](C)N(C(=O)c2ccc(OCCCC(N)=O)cc2)c2ccccc21)c1ccc(Cl)cc1 (racemic) [Compound 31, (±)-trans-1-[4-(3-carbamoyl-propoxy)-benzoyl]-2-methyl-1,2,3,4-tetrahydro-quinoline-4-carboxylic acid (4-chloro-phenyl)-ethyl-amide]
CCN(C(=O)[C@H]1C[C@H](C)N(C(=O)c2ccc(O)cc2)c2ccccc21)c1ccc(Cl)cc1 (racemic) [Compound 32, (±)-trans-1-(4-Hydroxy-benzoyl)-2-methyl-1,2,3,4-tetrahydro-quinoline-4-carboxylic acid (4-chloro-phenyl)-ethyl-amide]
CCc1ccc(N(CC)C(=O)[C@H]2C[C@H](C)N(C(=O)c3ccc(OC)cc3)c3ccccc32)cc1 (racemic) [Compound 34, (±)-trans-1-(4-Methoxy-benzoyl)-2-methyl-1,2,3,4-tetrahydro-quinoline-4-carboxylic acid ethyl-(4-ethyl-phenyl)-amide]
COc1ccc(C(=O)N2c3ccccc3[C@@H](C(=O)N(C)c3ccccc3)C[C@@H]2C)cc1 (racemic) [Compound 36, (±)-trans-1-(4-Methoxy-benzoyl)-2-methyl-1,2,3,4-tetrahydro-quinoline-4-carboxylic acid methyl-phenyl-amide]
CCN(C(=O)[C@H]1C[C@H](C)N(C(=O)c2ccc(OC)cc2)c2ccccc21)c1ccc(C)c(Cl)c1 (racemic) [Compound 37, (±)-trans-1-(4-Methoxy-benzoyl)-2-methyl-1,2,3,4-tetrahydro-quinoline-4-carboxylic acid (3-chloro-4-methyl-phenyl)-ethyl-amide]
CCN(C(=O)[C@H]1C[C@H](C)N(C(=O)c2ccc(N(C)C)cc2)c2ccccc21)c1ccc(Cl)cc1 (racemic) [Compound 40, (±)-trans-1-(4-Dimethylamino-benzoyl)-2-methyl-1,2,3,4-tetrahydro-quinoline-4-carboxylic acid (4-chloro-phenyl)-ethyl-amide]
